Reference: patent publication US20250250330A1
These are yes or no findings as the source states them, for the method shown. Some results given as binding are weak or reduced against the parent protein; the word gives no strength.

By UniProt entry, the sequences of proteins in these tests, tags left out. Where a name states a change or a piece, a line headed by the entry shows the natural chain unless it says otherwise. Chains listed by the source or under a name are the forms on record and can include a tag or linker. Residues count along the entry.
Recombinant human VEGF165 (Peprotech, Cat #100-20) (P15692, form named): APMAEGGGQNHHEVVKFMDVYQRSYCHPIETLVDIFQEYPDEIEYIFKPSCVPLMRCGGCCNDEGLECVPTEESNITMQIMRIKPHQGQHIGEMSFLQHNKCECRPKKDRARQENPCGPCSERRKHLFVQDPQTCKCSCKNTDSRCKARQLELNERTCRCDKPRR
UniProt O15123, residues 275-496: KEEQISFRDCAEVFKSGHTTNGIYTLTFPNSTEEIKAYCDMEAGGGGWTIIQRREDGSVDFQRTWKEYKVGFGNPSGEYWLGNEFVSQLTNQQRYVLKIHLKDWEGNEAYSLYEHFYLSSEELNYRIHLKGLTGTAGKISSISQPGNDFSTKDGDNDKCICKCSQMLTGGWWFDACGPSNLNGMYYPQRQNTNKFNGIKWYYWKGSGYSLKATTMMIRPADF

Key:
[1] = biological target: Recombinant human VEGF165 (Peprotech, Cat #100-20) (human) (UniProt P15692); assay: ELISA on rhVEGF165
[2] = biological target: His-tagged recombinant human ANG-2 (AcroBiosystems, Cat #AN2-H52H4) (human) (UniProt O15123); assay: ELISA on rhANG-2

binding [1] | binding [2] | Binder
binds | – | RP-014_VEGF-A_Sab (Fab, V domains shown, not shown: a dimerising Fc or GST) VH: QVQLVQSGAEVKKPGASVKVSCKASGYTFSIYTIHWVRQAPGQGLEWMGGINPYNGNTKYAQKFQGRVTMTRDTSISTAYMELSRLRSDDTAVYYCAKAPAVFWWTGLDYWGQGTLVTVSS VL: QPVLHQPPAMSSALGTTIRLTCTLRNDHDIGVYSVYWYQQRPGHPPRFLLRYFSQSDKSQGPQVPPRFSGSKDVARNRGYLSISELQPEDEAMYYCAMGARSSVTHVFGSGTQLTVLS
– | binds | RP-017_ANG-2_Sab (Fab, V domains shown, not shown: a dimerising Fc or GST) VH: EVQLVESGGGLVKPGGSLRLSCAASGFTFSSYGMHWVRQAPGKGLEWVAGISADSGDKNYADSVKGRFTISRDNAKNSLYLQMNSLRAEDTAVYYCAKEFISWIYTFDYLDYWGQGTLVTVSS VL: QPVLHQPPAMSSALGTTIRLTCTLRNDHDIGVYSVYWYQQRPGHPPRFLLRYFSQSDKSQGPQVPPRFSGSKDVARNRGYLSISELQPEDEAMYYCAMGARSSVTHVFGSGTQLTVLS
